Values after ≈ are worked out from the molar mass of the structure shown.

This passage reports solubility and logP results from ChEMBL document CHEMBL5038635, “Discovery of Salidroside-Derivated Glycoside Analogues as Novel Angiogenesis Agents to Treat Diabetic Hind Limb Ischemia” (J Med Chem, 2022).

Data set [1] is described as follows: Water solubility of the compound by HPLC analysis. The conditions noted are these: buffer.
Data set [2] can be described thus: Octanol/Water partition coefficient, log P of the compound by HPLC-UV analysis.

Turning to `OC[C@H]1O[C@@H](Oc2ccc(Cc3ccc(O)c(O)c3)cc2)[C@H](O)[C@@H](O)[C@@H]1O`, in data set [1], the solubility (as a rule, the concentration that dissolves in the medium under given conditions) was determined as 59.1 mg/mL (≈ 156 mM). Besides, the logP (as a rule, a log measure of how a compound divides between an organic and an aqueous phase) in data set [2] was -0.363.
